Data as given in the supplement of paper PMC10060354, “Discovery of a small molecule ligand of FRS2 that inhibits invasion and tumor growth” (Cellular Oncology, 2022).
Repeats are few or missing, and single values can be far off.

Chains of the proteins cited; added tags and fusions are not shown. Lines headed by an entry give the natural chain unless they say otherwise; changes in a name come on top.
UniProt Q15075: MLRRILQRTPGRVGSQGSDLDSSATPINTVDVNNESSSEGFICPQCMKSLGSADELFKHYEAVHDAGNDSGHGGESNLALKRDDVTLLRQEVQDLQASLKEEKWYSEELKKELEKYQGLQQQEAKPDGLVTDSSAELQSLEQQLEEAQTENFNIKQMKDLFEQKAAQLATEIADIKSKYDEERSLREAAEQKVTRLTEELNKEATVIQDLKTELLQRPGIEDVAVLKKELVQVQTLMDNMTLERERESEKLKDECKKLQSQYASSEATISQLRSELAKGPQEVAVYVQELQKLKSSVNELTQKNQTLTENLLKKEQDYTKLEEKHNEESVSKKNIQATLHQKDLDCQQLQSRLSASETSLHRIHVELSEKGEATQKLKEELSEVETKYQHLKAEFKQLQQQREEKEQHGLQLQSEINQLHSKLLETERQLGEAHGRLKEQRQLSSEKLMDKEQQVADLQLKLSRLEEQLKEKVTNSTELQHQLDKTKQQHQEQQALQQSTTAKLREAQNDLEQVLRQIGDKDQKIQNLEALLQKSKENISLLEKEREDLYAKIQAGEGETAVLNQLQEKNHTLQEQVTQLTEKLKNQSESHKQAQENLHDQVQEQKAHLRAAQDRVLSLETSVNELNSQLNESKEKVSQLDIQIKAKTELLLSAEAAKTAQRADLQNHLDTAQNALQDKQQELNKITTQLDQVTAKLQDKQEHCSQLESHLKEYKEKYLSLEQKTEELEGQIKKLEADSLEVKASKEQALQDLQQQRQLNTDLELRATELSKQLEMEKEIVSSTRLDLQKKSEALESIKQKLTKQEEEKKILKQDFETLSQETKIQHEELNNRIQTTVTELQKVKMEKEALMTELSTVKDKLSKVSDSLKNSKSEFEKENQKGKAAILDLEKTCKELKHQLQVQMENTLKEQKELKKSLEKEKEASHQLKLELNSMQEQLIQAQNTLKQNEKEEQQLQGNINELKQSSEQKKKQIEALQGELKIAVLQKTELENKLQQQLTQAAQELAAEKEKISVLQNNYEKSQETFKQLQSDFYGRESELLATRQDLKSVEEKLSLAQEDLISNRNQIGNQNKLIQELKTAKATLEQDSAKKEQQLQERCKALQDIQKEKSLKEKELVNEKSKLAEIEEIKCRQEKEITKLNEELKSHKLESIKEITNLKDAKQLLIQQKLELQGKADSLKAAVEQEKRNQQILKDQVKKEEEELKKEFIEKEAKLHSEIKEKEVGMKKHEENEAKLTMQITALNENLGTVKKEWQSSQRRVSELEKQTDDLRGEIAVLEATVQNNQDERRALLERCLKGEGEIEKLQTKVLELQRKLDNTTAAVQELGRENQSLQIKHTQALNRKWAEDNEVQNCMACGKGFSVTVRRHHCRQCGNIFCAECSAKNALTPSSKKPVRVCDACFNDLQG
UniProt P61289: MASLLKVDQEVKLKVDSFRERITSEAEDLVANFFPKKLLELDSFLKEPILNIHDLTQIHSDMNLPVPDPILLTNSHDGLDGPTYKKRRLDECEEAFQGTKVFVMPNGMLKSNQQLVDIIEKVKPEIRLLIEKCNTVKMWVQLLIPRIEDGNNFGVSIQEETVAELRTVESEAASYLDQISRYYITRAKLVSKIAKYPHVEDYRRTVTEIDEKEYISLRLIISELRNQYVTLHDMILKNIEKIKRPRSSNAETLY
UniProt Q8TC71: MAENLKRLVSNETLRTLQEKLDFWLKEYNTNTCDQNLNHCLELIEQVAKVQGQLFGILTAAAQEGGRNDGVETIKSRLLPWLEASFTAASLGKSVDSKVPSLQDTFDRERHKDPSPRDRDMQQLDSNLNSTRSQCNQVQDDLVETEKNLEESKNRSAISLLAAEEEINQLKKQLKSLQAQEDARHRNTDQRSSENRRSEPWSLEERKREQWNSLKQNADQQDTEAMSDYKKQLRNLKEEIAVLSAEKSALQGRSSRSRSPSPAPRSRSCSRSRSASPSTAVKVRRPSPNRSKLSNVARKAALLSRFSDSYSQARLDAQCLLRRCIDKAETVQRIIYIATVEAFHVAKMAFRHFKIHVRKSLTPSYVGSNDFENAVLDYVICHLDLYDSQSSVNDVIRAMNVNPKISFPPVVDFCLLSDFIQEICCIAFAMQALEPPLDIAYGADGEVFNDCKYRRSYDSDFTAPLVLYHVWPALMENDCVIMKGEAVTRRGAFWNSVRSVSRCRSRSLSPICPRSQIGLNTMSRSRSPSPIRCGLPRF
UniProt P61088: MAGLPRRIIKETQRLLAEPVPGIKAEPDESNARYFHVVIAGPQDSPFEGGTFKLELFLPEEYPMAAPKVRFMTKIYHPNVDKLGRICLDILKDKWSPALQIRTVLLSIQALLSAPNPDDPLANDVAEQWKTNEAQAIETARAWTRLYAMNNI
UniProt Q5VZ89: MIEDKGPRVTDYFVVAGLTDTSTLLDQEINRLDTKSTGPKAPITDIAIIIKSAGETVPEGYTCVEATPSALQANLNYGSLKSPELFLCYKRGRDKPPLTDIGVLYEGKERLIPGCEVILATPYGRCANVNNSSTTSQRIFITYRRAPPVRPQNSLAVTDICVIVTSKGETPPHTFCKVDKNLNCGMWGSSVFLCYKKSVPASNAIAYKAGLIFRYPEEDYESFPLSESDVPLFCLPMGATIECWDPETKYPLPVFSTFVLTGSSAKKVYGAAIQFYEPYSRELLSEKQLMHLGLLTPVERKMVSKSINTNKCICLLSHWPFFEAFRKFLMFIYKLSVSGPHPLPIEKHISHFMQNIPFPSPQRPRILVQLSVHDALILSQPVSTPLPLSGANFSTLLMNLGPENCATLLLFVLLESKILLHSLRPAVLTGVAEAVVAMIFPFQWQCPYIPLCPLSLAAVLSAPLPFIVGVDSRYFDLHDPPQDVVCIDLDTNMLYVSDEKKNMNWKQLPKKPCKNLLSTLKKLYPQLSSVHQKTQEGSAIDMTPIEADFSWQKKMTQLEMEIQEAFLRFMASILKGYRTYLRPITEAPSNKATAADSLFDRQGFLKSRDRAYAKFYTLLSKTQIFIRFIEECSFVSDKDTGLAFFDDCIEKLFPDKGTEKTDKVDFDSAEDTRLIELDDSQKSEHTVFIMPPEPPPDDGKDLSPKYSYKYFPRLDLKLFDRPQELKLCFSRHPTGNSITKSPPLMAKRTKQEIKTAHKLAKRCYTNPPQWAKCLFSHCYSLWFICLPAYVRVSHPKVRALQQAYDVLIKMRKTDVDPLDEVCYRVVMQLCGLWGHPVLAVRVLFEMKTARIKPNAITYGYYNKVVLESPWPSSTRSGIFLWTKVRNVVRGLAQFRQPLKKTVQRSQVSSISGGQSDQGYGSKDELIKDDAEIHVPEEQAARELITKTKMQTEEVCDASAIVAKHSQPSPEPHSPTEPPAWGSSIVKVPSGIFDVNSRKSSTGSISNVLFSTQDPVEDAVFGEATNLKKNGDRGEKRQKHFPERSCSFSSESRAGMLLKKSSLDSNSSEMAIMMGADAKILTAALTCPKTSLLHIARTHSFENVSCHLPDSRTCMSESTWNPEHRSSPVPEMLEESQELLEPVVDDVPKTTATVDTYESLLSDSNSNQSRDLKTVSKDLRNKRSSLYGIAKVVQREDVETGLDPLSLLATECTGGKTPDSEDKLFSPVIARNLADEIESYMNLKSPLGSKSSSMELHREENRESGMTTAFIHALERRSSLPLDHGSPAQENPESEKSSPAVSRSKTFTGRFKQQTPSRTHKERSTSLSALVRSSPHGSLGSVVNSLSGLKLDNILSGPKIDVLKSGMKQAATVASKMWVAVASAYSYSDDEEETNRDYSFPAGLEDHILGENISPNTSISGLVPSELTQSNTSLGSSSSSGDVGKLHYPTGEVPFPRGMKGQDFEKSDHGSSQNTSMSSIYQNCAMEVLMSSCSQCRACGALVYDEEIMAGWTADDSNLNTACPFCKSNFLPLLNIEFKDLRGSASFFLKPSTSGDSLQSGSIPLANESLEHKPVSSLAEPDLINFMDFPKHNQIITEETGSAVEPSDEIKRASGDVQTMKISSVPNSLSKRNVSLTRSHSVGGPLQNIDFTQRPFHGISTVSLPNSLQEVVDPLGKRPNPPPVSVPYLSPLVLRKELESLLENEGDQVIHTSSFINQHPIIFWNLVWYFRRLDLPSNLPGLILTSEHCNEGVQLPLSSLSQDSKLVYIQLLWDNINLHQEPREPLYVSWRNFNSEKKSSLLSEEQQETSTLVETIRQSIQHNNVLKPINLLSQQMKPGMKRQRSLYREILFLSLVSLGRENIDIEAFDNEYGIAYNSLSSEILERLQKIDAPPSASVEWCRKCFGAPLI
UniProt Q9BTL3: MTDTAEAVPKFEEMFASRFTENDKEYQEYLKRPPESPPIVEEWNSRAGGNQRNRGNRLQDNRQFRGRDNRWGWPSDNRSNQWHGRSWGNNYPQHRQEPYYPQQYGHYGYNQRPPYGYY
UniProt Q8NC56: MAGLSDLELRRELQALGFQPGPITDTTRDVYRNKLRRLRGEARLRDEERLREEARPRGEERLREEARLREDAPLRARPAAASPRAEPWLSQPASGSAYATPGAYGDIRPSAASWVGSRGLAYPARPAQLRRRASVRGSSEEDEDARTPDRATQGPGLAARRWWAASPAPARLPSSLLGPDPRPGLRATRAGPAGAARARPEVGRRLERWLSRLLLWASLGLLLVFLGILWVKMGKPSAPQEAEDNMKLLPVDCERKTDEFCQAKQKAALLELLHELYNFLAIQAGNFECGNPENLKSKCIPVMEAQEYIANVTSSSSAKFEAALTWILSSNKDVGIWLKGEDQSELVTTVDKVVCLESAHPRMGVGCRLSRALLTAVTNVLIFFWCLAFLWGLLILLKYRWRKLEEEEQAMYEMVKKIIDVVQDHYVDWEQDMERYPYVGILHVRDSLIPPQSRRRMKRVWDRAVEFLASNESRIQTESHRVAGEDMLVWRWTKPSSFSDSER
UniProt Q86TM6, whole entry: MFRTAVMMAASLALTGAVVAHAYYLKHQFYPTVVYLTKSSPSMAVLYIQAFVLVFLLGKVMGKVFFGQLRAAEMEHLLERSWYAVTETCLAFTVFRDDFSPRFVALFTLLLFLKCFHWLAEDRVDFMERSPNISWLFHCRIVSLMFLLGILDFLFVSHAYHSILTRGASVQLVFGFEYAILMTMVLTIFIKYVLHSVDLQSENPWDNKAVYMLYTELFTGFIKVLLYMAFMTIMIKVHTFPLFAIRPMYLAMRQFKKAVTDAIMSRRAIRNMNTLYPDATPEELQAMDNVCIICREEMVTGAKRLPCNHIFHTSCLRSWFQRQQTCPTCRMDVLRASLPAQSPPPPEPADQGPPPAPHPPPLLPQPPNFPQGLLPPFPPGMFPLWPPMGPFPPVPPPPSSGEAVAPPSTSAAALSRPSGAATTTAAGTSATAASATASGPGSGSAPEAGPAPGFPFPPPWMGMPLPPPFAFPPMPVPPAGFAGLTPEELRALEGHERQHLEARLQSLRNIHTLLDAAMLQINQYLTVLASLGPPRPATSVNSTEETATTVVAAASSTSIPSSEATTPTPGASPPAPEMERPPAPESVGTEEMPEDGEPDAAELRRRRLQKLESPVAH
UniProt Q86YM7: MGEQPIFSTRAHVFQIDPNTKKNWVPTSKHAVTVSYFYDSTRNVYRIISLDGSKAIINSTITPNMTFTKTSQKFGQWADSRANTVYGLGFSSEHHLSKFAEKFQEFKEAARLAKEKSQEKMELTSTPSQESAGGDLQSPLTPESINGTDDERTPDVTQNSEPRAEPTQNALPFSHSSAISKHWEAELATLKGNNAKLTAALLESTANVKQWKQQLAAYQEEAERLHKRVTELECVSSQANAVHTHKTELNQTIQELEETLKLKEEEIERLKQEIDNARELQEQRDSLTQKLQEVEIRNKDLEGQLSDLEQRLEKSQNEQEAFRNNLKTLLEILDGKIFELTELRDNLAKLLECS
UniProt Q9Y3I0: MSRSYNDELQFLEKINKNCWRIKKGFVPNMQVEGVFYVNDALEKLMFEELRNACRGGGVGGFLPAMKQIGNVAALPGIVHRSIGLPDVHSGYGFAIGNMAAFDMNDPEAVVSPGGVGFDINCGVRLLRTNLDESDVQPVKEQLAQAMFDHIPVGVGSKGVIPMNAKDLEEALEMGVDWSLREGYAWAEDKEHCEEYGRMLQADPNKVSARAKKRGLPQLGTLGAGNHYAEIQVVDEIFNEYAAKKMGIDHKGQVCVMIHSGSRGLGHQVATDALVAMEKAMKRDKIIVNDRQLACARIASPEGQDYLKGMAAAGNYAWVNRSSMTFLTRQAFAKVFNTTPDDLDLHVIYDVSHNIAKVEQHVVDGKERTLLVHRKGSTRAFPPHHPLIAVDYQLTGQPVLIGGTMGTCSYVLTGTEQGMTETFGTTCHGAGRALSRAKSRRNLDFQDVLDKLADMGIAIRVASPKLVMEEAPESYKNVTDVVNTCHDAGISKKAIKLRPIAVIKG
UniProt O15258: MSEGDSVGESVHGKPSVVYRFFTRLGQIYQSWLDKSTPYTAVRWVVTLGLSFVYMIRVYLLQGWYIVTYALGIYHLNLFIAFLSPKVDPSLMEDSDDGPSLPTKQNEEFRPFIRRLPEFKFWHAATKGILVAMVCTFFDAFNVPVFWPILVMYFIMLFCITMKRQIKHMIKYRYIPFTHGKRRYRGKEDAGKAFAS

Compound: [O-][N+](C(C1=C(C(O)=C2)NC(C(C=C3)=CC=C3Cl)C4C1C=CC4)=C2Cl)=O
Experiment: melting temperature shift (compound 7 minus DMSO); higher = compound stabilises the protein
Settings: 10 µM
Experimental: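 Thermal proteome profiling (TMT mass spectrometry) in intact DAOY medulloblastoma cells or DAOY lysates treated with 10 µM compound 7 or DMSO, heated at 10 temperatures from 40.5 to 73.8 °C for 3 min. Melting curves were fitted with the Bioconductor TPP package, and the melting point difference between compound and vehicle is reported per protein (single curve per condition).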

[1] = system: DAOY cell lysate, treatment time: 20 min, 4 °C
[2] = system: intact DAOY cells, treatment time: 90 min, 37 °C

| Target | melting temperature shift [1] | melting temperature shift [2] |
| --- | --- | --- |
| SERINC1 (UniProt Q9NRX5) | 1.66 °C | 1.5 °C |
| ST7 (UniProt Q9NRC1) | – | -0.148 °C |
| GNAI2 (UniProt P04899) | 0.875 °C | -0.252 °C |
| BMP2K (UniProt Q9NSY1) | 3.7 °C | – |
| EEA1 (UniProt Q15075) | -1.18 °C | – |
| MYO6 (UniProt Q9UM54) | -0.0726 °C | -0.845 °C |
| UNC119B (UniProt A6NIH7) | -0.56 °C | 1.53 °C |
| CTSA (UniProt P10619) | 0.115 °C | -2.27 °C |
| TRMT61B (UniProt Q9BVS5) | 1.19 °C | 4.86 °C |
| UniProt O14972 | -0.923 °C | -0.838 °C |
| NFYB (UniProt P25208) | 1.93 °C | -2.46 °C |
| FIP1L1 (UniProt Q6UN15) | -0.857 °C | -1.65 °C |
| GBE1 (UniProt Q04446) | -0.909 °C | -0.499 °C |
| CANT1 (UniProt Q8WVQ1) | 0.474 °C | -0.0931 °C |
| CHRAC1 (UniProt Q9NRG0) | -0.192 °C | – |
| MAPRE1 (UniProt Q15691) | -0.266 °C | -0.128 °C |
| ZBTB10 (UniProt Q96DT7) | 0.841 °C | – |
| PSME3 (UniProt P61289) | -0.475 °C | – |
| THOC6 (UniProt Q86W42) | -1.42 °C | 2.84 °C |
| TBC1D2B (UniProt Q9UPU7) | – | -1.39 °C |
| UniProt Q86U86 | -0.268 °C | – |
| UniProt Q8TAD8 | -1.44 °C | -3.09 °C |
| DR1 (UniProt Q01658) | -1.9 °C | 0.96 °C |

| Target | melting temperature shift [1] | melting temperature shift [2] |
| --- | --- | --- |
| UniProt P50895 | -0.95 °C | – |
| UniProt P16455 | -0.135 °C | -0.596 °C |
| RNASEH2B (UniProt Q5TBB1) | -1.43 °C | -0.434 °C |
| SLC25A4 (UniProt P12235) | 2.76 °C | 0.155 °C |
| LGMN (UniProt Q99538) | 0.544 °C | 0.621 °C |
| UniProt Q9Y575 | -2.87 °C | – |
| SPHK1 (UniProt Q9NYA1) | – | 0.207 °C |
| UniProt Q8TC71 | – | 0.748 °C |
| RRP12 (UniProt Q5JTH9) | -0.562 °C | 1.18 °C |
| MIEN1 (UniProt Q9BRT3) | -1.85 °C | -2.01 °C |
| AP3B1 (UniProt O00203) | -0.398 °C | -1.11 °C |
| PSMC2 (UniProt P35998) | -0.477 °C | -0.824 °C |
| UniProt Q8N201 | 0.0367 °C | -0.979 °C |
| UniProt Q96A29 | -0.198 °C | – |
| UGDH (UniProt O60701) | -0.36 °C | -0.524 °C |
| ELAVL2 (UniProt Q12926) | – | -1.34 °C |
| UniProt Q9H2A2 | – | 2.11 °C |
| TEX2 (UniProt Q8IWB9) | 0.826 °C | – |
| ATP2C1 (UniProt P98194) | 0.231 °C | -1.03 °C |
| UBE2N (UniProt P61088) | -0.759 °C | -0.256 °C |
| UniProt Q15843 | -3.65 °C | 0.941 °C |
| NRAS (UniProt P01111) | 1.07 °C | 1.22 °C |
| UniProt Q9H334 | 0.468 °C | 0.347 °C |

| Target | melting temperature shift [1] | melting temperature shift [2] |
| --- | --- | --- |
| IDH3B (UniProt O43837) | -0.281 °C | -0.704 °C |
| UniProt Q9HCM4 | -0.805 °C | 0.104 °C |
| DENND4C (UniProt Q5VZ89) | 0.849 °C | – |
| HEATR3 (UniProt Q7Z4Q2) | -0.355 °C | 0.0437 °C |
| HSD17B12 (UniProt Q53GQ0) | 0.565 °C | -0.0317 °C |
| RBM19 (UniProt Q9Y4C8) | 0.783 °C | – |
| UniProt Q8TDI0 | 0.64 °C | -0.686 °C |
| ZC3H8 (UniProt Q8N5P1) | -1.08 °C | -1.04 °C |
| FAM103A1 (UniProt Q9BTL3) | -4.11 °C | -0.961 °C |
| PITHD1 (UniProt Q9GZP4) | -2.46 °C | -1.5 °C |
| CCNT1 (UniProt O60563) | -0.293 °C | -0.596 °C |
| TOM1L1 (UniProt O75674) | -1.49 °C | – |
| RHOT2 (UniProt Q8IXI1) | 0.245 °C | 1.01 °C |
| LEMD2 (UniProt Q8NC56) | 0.833 °C | -0.894 °C |
| MAVS (UniProt Q7Z434) | 1.33 °C | 0.607 °C |
| UniProt L0R8F8 | 0.495 °C | 0.195 °C |
| TCF3 (UniProt P15923) | 0.628 °C | – |
| S100A11 (UniProt P31949) | – | 0.00738 °C |
| OSBPL8 (UniProt Q9BZF1) | 1.87 °C | -0.663 °C |
| UniProt Q96H35 | 6.82 °C | – |
| MVD (UniProt P53602) | -1.51 °C | 0.41 °C |
| UniProt A2RUB6 | – | -2.21 °C |
| KBTBD2 (UniProt Q8IY47) | -0.0137 °C | -1.11 °C |

| Target | melting temperature shift [1] | melting temperature shift [2] |
| --- | --- | --- |
| UniProt Q7L2Z9 | -0.72 °C | – |
| DIAPH3 (UniProt Q9NSV4) | -2.3 °C | – |
| UniProt Q9C010 | – | 0.0787 °C |
| XPO5 (UniProt Q9HAV4) | -0.425 °C | -1.61 °C |
| USP19 (UniProt O94966) | 0.598 °C | 0.271 °C |
| YIF1B (UniProt Q5BJH7) | -1.43 °C | -0.0183 °C |
| UniProt P54803 | – | -1.69 °C |
| SYVN1 (UniProt Q86TM6) | -0.323 °C | -1.23 °C |
| LSM6 (UniProt P62312) | -0.392 °C | -1.99 °C |
| LRWD1 (UniProt Q9UFC0) | 0.273 °C | -0.544 °C |
| UniProt P55082 | – | 1.19 °C |
| HOMER1 (UniProt Q86YM7) | -0.277 °C | -0.0465 °C |
| UniProt P46379 | -0.58 °C | 1.08 °C |
| UBA2 (UniProt Q9UBT2) | -0.484 °C | 0.116 °C |
| RABL6 (UniProt Q3YEC7) | -1.25 °C | -0.0473 °C |
| EEF2 (UniProt P13639) | -1.04 °C | -0.0459 °C |
| NTPCR (UniProt Q9BSD7) | -0.0202 °C | -0.762 °C |
| WDR81 (UniProt Q562E7) | -0.185 °C | – |
| UHRF1 (UniProt Q96T88) | -0.244 °C | -0.0226 °C |
| UniProt P09211 | -0.243 °C | -0.341 °C |
| RNASEH2C (UniProt Q8TDP1) | -0.951 °C | 0.0444 °C |
| ANXA6 (UniProt P08133) | 0.0239 °C | 0.156 °C |
| NCOA5 (UniProt Q9HCD5) | 0.964 °C | 1.55 °C |

A run of entries of the results above, for reference:

| Target | melting temperature shift [1] | melting temperature shift [2] |
| --- | --- | --- |
| XPO5 (UniProt Q9HAV4) | -0.425 °C | -1.61 °C |
| USP19 (UniProt O94966) | 0.598 °C | 0.271 °C |
| YIF1B (UniProt Q5BJH7) | -1.43 °C | -0.0183 °C |

Next part:

| Target | melting temperature shift [1] | melting temperature shift [2] |
| --- | --- | --- |
| GMPS (UniProt P49915) | -0.354 °C | -0.685 °C |
| RTCB (UniProt Q9Y3I0) | -0.214 °C | 0.0216 °C |
| WDFY1 (UniProt Q8IWB7) | 2.66 °C | 2.68 °C |
| UCK1 (UniProt Q9HA47) | – | 1.81 °C |
| MZT2B (UniProt Q6NZ67) | 0.45 °C | – |
| PLGRKT (UniProt Q9HBL7) | 3.81 °C | 0.561 °C |
| SSR3 (UniProt Q9UNL2) | 1.8 °C | -1.99 °C |
| RER1 (UniProt O15258) | 1.13 °C | – |
| ARPC3 (UniProt O15145) | -0.265 °C | 0.565 °C |
| A0A0B4J1V1, A0A0B4J1V1 | -1.17 °C | -1.62 °C |
| COA3 (UniProt Q9Y2R0) | 2.22 °C | – |
| SPTLC1 (UniProt O15269) | 0.0409 °C | 0.26 °C |
| SHOC2 (UniProt Q9UQ13) | -0.706 °C | -0.166 °C |
| O15320 (UniProt Q96PC5) | 1.15 °C | -0.443 °C |
| RECQL (UniProt P46063) | -0.413 °C | 1.6 °C |
| UniProt P59190 | – | -1.68 °C |
| EPHA7 (UniProt Q15375) | – | -0.951 °C |
| SAFB2 (UniProt Q14151) | 0.99 °C | 0.487 °C |
| ERP29 (UniProt P30040) | 0.593 °C | 0.209 °C |
| UniProt Q8NBM8 | 1.06 °C | 1.18 °C |
| RDH13 (UniProt Q8NBN7) | 0.745 °C | – |
| UniProt Q495N2 | – | 0.181 °C |
